Construct, isoform or probe ends are uncertain for at least one entry. Bounds are passed on as bounds.

Chains of the proteins cited; added tags and fusions are not shown. A line that says so, or that is headed by a name, gives the form on record, which may keep a tag or linker.
hMITF-WT (Homo sapiens), one chain, as listed by the source: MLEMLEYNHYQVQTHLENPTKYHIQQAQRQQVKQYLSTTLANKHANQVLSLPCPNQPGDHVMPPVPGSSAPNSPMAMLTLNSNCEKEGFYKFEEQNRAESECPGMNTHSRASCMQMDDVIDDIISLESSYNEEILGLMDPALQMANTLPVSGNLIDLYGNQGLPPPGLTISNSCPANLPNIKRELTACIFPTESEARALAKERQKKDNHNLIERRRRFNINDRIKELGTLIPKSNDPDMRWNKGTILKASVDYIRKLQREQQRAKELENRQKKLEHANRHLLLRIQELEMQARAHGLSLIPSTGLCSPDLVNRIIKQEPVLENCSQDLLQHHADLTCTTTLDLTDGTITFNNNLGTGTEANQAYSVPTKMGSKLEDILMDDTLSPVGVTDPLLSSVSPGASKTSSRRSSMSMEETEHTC
MITF-sl (mouse) (Mus musculus), one chain, as listed by the source: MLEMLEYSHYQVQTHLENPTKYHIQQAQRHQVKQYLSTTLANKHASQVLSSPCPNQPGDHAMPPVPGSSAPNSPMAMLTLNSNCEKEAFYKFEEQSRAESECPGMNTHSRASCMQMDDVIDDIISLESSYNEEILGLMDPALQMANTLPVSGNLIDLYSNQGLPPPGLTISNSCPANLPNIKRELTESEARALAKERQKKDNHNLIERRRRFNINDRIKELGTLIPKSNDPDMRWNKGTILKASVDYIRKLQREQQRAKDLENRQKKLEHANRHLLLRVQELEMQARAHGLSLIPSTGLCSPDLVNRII
MITF-sp (mouse) (Mus musculus), one chain, as listed by the source: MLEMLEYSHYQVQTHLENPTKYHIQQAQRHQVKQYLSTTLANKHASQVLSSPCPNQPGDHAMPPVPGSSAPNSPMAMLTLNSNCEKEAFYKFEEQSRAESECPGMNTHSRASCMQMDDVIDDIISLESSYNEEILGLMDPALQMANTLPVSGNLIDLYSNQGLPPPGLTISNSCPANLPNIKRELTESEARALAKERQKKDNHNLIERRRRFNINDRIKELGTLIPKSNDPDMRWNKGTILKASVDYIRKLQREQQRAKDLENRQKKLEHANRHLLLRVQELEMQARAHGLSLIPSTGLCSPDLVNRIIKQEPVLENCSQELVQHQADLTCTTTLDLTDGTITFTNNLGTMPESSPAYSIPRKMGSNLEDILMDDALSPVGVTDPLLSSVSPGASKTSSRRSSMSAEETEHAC
hMITF-sl (Homo sapiens), one chain, as listed by the source: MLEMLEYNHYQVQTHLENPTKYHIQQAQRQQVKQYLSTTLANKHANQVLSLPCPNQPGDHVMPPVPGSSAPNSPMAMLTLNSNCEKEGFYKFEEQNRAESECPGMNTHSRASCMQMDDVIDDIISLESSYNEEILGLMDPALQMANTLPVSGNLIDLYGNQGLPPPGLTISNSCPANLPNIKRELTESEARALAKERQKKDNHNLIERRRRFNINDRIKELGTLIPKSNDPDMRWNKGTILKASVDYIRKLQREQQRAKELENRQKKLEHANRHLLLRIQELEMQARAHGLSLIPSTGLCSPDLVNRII
MITF-WT (mouse) (Mus musculus), one chain, as listed by the source: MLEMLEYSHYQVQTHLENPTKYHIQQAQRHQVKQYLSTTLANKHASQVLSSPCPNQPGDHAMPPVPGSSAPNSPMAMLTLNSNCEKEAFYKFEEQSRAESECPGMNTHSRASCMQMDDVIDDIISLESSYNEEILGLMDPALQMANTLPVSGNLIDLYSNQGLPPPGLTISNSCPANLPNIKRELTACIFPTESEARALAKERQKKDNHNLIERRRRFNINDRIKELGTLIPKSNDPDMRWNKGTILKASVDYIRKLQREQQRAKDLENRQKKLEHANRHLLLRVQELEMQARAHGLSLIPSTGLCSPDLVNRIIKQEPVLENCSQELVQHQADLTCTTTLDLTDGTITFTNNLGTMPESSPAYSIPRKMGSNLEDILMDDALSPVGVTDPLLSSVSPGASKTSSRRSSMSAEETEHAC
hMITF-sp (Homo sapiens), one chain, as listed by the source: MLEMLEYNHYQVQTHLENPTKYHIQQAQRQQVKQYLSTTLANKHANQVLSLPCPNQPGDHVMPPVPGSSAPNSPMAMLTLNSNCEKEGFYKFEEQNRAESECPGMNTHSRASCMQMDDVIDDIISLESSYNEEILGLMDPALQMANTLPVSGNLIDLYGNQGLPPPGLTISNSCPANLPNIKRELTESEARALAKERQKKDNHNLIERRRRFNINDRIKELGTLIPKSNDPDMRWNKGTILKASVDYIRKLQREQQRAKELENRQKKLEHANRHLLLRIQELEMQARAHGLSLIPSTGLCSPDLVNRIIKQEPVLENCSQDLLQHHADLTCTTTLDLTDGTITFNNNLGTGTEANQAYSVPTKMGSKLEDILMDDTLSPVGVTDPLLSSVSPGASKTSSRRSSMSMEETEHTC

Data set [1] concerns MITF-sl (mouse) (Mus musculus). The data set is described as follows: EMSA. The conditions noted are these: EMSA: 10 mM Hepes pH 7.9, 50 mM NaCl, 5 mM MgCl2, 0.1 mM EDTA, 2 mM DTT, 5% ethylene glycol, 5% glycerol, BSA, 30 min on ice; protein translated in vitro.
Data set [2] deals with MITF-sp (mouse) (Mus musculus). Description: EMSA. The note with it: EMSA: 10 mM Hepes pH 7.9, 50 mM NaCl, 5 mM MgCl2, 0.1 mM EDTA, 2 mM DTT, 5% ethylene glycol, 5% glycerol, BSA, 30 min on ice; protein translated in vitro.
The subject of data set [3] is MITF-WT (mouse) (Mus musculus). The data set is described as follows: EMSA. The conditions noted are these: C5 MITF antibody supershift; EMSA: 10 mM Hepes pH 7.9, 50 mM NaCl, 5 mM MgCl2, 0.1 mM EDTA, 2 mM DTT, 5% ethylene glycol, 5% glycerol, BSA, 30 min on ice; protein translated in vitro; residues 1-419.
Data set [4] deals with hMITF-sp (Homo sapiens). Description: single-molecule fluorescence anisotropy. The conditions noted are these: 165 mM KCl; 5' C6-amino linker on both strands; Single-molecule: 0.5 nM DNA, 10 mM Tris pH 7.4, 0.1 mM EDTA, 165 or 300 mM KCl, 1 mM MgCl2, 143 mM 2-ME, 0.01% Tween-20, 0.1 mg/mL BSA; recombinant protein.
For data set [5], the system named is hMITF-sl (Homo sapiens). The data set is described as follows: single-molecule fluorescence anisotropy. The note with it: 165 mM KCl; 5' C6-amino linker on both strands; Single-molecule: 0.5 nM DNA, 10 mM Tris pH 7.4, 0.1 mM EDTA, 165 or 300 mM KCl, 1 mM MgCl2, 143 mM 2-ME, 0.01% Tween-20, 0.1 mg/mL BSA; recombinant protein.
Data set [6] concerns hMITF-WT (Homo sapiens). Description: single-molecule fluorescence anisotropy. The note with it: 165 mM KCl; 5' C6-amino linker on both strands; Single-molecule: 0.5 nM DNA, 10 mM Tris pH 7.4, 0.1 mM EDTA, 165 or 300 mM KCl, 1 mM MgCl2, 143 mM 2-ME, 0.01% Tween-20, 0.1 mg/mL BSA; recombinant protein; residues 1-419.

As for “AAAGTCAGTCATGTGCTTTTCAGA (double strand) [M-box EMSA probe]”, the binding result in data set [1], in data set [2] and in data set [3] was “binds” throughout.

Turning to “GAGATCATGTGTTGA (double strand) [M-box smFRET probe]”, the Kd in data set [4], in data set [5] and in data set [6] was below 0.25 nM in each case.

For the origin of these results see publication PMC11467436, “Novel mechanisms of MITF regulation identified in a mouse suppressor screen”.
